# In publication PMC9705874:
# Target: T1, LexA (Myxococcus xanthus DK1622) (UniProt Q1D406)
# T1 sequence (looked up, limits assumed): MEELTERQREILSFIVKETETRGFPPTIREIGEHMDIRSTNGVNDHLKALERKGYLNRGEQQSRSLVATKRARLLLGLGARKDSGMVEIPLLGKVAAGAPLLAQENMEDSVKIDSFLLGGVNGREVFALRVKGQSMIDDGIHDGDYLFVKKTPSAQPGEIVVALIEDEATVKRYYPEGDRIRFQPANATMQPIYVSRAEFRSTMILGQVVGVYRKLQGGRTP
# Assay: EMSA
# Conditions: 25 mM Tris-HCl pH 7.0, 50 mM NaCl, 4% glycerol, 1 mM DTT, 32 C 20 min; 0.8% agarose gel at 4 C; recombinant protein; protein details: 6xHis (pET15b, NdeI/BamHI); label: 5' biotin
row,Sequence,binding result
1,TTTTTTGTCGGACCTGCTAGGGTGTTCAGGTACCA (double strand) [recN SOS box],no binding
2,TTTTTTGTTGACTCTACACGTCTGTTCAGGGAGAG (double strand) [lexA SOS box],binds
3,TTTTTTTCGCGTACTAAAAGCGCGTTCAGGTGAGC (double strand) [recA2 SOS box],binds
4,TTTTTTTGATTACCTGCTTGTTTGTTCAGGCGCGT (double strand) [pafBC SOS box],binds more weakly

# For at least one entry, the source does not settle the construct or the ends of the probe. A negative result means that nothing was seen under these conditions. Where a protein sequence is shown, tags need not be part of it. The comparison behind a weaker result is the experiment's own reference, which may not be listed here.
